Measured values published in the supplement of paper PMC10849652.
Some of the results follow. Residues, ends and D or L forms follow the SMILES beside them. *: point of attachment. Cbz = O=C(OCc1ccccc1)*

By UniProt entry, the sequences of proteins in these tests, tags left out. Where a name states a change or a piece, a line headed by the entry shows the natural chain unless it says otherwise.
UniProt P01876, whole entry, looked up: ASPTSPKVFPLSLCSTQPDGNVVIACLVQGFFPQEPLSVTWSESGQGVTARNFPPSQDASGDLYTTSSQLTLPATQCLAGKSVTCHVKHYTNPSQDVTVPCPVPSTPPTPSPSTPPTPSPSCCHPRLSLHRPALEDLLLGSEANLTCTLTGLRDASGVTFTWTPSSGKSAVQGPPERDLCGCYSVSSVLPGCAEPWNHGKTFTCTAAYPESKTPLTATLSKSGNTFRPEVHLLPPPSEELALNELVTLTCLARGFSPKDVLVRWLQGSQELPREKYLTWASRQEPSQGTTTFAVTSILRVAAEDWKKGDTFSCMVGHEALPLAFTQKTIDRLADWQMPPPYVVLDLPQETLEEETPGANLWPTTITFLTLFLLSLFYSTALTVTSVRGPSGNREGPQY
UniProt Q9BT40: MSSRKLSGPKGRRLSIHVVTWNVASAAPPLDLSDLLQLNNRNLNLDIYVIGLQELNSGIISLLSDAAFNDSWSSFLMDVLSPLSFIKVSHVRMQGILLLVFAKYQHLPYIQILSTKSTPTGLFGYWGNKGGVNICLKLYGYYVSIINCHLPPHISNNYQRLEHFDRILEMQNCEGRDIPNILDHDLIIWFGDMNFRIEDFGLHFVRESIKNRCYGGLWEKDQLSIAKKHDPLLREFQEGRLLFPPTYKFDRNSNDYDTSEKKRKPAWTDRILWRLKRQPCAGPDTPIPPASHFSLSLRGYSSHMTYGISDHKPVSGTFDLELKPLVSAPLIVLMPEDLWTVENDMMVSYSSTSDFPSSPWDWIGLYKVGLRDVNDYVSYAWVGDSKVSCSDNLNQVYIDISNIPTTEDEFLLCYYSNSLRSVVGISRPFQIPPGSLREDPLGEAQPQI
UniProt Q08334: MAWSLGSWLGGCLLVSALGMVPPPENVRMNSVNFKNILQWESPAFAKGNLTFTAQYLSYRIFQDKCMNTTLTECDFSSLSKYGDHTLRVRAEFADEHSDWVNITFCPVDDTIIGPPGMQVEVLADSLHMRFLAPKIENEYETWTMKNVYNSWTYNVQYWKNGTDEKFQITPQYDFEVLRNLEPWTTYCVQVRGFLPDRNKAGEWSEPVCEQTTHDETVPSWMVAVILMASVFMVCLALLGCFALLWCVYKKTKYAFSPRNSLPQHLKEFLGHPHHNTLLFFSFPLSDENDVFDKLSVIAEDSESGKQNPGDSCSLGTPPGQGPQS
UniProt Q92551: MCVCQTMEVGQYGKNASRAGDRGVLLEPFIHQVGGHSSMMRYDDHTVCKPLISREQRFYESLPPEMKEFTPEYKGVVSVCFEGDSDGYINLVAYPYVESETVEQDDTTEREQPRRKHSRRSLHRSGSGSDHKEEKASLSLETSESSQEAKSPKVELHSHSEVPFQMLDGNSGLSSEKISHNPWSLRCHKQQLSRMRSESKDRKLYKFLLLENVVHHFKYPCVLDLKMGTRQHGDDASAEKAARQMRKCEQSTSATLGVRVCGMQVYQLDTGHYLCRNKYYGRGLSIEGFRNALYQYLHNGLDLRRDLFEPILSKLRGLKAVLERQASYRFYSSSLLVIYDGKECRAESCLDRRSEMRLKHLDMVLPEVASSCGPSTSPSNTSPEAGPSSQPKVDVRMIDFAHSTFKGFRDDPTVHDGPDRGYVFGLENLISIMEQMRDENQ
UniProt Q9UNL4, whole entry, looked up: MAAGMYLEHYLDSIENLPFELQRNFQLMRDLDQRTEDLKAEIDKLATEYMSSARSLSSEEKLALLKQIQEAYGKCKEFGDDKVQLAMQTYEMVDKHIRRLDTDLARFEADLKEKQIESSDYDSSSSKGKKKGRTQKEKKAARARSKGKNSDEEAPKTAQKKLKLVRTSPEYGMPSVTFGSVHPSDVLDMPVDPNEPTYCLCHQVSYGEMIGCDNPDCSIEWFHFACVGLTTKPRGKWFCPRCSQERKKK
UniProt Q13478: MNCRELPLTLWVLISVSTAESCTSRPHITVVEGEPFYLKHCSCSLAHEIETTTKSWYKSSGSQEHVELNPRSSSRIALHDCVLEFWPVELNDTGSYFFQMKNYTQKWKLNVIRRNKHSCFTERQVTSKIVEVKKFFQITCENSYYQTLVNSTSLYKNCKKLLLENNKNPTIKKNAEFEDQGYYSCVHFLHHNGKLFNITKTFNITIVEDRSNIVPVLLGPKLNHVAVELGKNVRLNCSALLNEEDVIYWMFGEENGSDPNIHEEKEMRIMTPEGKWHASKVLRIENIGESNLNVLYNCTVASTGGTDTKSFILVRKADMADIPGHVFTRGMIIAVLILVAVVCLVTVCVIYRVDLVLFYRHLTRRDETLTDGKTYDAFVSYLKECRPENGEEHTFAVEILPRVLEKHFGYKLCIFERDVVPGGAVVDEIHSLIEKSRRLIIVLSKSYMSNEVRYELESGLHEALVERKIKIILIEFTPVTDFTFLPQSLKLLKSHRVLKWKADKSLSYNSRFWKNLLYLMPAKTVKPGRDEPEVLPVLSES
UniProt Q9BUE6: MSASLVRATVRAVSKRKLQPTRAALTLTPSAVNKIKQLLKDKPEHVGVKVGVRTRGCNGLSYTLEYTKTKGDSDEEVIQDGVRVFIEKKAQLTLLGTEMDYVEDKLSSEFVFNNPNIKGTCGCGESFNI
UniProt P28290: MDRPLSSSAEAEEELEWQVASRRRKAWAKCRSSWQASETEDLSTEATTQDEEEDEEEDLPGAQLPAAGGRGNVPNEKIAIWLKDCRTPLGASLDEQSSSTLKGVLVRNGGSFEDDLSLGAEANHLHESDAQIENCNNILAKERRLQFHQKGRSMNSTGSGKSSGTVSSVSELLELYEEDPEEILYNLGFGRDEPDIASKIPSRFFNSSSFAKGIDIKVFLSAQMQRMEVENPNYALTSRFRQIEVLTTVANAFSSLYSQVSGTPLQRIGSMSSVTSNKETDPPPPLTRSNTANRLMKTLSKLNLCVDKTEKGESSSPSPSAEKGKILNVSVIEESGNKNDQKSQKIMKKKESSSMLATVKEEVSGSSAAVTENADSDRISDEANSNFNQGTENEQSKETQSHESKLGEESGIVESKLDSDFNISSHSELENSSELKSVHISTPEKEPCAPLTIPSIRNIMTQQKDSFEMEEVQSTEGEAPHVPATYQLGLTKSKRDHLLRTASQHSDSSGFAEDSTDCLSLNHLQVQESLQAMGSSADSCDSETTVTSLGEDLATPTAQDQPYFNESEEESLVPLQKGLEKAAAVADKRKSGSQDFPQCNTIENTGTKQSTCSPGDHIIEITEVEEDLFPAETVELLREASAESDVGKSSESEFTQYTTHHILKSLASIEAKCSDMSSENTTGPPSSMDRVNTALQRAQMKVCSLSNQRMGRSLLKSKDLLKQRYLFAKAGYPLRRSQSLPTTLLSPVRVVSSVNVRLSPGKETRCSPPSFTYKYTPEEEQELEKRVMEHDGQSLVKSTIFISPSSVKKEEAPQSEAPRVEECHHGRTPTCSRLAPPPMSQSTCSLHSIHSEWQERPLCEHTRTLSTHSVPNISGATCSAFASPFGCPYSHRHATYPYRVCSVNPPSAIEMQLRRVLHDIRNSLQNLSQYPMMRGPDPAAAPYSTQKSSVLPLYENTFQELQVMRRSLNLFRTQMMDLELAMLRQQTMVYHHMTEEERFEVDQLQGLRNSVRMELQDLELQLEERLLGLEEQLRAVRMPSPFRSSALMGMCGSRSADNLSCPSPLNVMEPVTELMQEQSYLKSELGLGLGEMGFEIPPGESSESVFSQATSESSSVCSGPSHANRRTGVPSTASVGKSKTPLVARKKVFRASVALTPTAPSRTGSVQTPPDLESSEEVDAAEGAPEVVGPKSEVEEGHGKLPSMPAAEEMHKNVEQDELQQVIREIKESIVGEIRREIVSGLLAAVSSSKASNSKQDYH
UniProt Q9Y573: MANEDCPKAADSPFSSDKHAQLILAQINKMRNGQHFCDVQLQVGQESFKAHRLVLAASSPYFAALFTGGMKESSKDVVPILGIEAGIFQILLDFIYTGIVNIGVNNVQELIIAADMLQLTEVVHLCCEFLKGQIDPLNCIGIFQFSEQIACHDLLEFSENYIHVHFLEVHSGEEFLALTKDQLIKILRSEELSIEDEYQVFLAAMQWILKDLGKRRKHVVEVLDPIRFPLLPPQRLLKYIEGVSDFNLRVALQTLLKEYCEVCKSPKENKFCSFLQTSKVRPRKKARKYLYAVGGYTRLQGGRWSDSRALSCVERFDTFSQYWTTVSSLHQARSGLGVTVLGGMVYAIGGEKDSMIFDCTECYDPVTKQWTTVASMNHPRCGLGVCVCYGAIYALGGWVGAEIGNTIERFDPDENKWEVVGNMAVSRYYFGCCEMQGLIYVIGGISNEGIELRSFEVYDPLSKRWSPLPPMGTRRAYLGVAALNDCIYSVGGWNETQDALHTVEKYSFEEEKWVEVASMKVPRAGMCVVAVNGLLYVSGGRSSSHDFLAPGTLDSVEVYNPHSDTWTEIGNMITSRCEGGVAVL
UniProt Q96F46, whole entry, looked up: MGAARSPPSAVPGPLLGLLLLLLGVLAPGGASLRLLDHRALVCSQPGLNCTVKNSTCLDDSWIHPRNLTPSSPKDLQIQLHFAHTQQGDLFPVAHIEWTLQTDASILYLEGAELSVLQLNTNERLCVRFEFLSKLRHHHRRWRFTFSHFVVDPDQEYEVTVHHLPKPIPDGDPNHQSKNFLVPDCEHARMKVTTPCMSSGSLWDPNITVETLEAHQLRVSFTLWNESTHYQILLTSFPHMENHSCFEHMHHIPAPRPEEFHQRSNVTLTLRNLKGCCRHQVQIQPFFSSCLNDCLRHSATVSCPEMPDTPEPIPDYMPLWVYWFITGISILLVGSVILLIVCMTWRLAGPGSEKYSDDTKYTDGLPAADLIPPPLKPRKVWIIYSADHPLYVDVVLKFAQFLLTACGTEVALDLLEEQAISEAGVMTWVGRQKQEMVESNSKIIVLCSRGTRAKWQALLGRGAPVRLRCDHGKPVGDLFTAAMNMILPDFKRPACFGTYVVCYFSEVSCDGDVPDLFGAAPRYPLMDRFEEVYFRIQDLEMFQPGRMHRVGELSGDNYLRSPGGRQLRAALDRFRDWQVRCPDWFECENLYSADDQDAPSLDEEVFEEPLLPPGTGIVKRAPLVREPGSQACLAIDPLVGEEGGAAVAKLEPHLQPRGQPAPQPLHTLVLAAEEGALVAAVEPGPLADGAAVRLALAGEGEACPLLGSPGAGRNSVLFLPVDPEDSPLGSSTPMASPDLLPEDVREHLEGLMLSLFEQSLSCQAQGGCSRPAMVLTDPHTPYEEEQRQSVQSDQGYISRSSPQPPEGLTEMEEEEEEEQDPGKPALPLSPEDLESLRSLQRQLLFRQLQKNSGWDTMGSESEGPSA
UniProt Q96CB8, whole entry, looked up: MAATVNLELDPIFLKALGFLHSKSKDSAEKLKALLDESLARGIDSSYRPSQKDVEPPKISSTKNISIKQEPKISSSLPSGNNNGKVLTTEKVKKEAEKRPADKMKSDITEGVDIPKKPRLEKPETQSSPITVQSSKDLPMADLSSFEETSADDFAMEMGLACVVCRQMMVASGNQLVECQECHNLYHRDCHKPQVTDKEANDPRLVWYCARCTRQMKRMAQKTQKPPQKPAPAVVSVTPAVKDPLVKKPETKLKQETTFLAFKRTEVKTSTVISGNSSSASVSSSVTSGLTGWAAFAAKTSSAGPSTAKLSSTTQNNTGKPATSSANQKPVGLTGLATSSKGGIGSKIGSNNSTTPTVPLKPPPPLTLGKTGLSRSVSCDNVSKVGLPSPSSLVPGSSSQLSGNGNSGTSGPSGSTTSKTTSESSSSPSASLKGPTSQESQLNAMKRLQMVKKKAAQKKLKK
IGKV3D-11, A0A0A0MRZ8, UniProt A0A0A0MRZ8, whole entry, looked up: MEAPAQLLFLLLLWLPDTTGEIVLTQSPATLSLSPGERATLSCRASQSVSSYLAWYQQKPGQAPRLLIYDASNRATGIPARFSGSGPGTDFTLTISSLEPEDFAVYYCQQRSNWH
UniProt Q9NPH3, whole entry, looked up: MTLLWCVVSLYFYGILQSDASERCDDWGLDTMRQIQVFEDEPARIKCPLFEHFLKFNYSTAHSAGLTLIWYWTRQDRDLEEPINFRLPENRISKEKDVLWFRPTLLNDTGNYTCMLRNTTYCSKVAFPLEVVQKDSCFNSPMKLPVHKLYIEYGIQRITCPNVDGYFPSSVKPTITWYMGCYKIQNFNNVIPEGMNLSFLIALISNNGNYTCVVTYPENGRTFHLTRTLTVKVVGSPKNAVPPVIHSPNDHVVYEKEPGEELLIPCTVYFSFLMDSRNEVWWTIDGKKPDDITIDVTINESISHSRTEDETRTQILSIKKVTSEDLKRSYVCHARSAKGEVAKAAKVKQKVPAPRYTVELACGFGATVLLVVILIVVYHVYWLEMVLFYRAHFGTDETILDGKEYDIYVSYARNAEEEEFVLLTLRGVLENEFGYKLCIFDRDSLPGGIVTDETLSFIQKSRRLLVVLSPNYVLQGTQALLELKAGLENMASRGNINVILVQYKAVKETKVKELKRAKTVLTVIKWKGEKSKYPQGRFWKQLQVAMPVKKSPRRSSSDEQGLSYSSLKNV

How the values were obtained:
Experiment in all cases: log2 fold change, soluble protein after heating vs DMSO (PISA); higher = thermal stabilisation; K562 cells, 10 uM, 30 min; active = over 0.2 and 3.5 SD of the protein, either way, in both replicates (recomputed)
[1] = compound: C#Cc1cccc(Nc2ncnc3cc(OCCOC)c(OCCOC)cc23)c1 [erlotinib]
Summary of the method: (§1)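 Values are thermal stability changes relative to control samples and are taken from duplicates. They are stated as log2 fold changes. Before quantification by TMTpro 16plex LC-MS/MS with equalised channel sums, K562 cells at 2×10^6 cells/mL were treated with 10 μM compound for 30 min, heated in aliquots for 3 min across 48°C-58°C, pooled, extracted in PBS with 0.5% NP-40 at 4°C, and centrifuged at 21,000xg for 90 min to give the soluble supernatant.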

[2] = compound: C/C(=N\NC(=O)C1=CC(=CC=C1)S(=O)(=O)N2CCOCC2)/C3=C(C=CC(=C3)Cl)O
Summary of the method: as §1

[3] = compound: C1=CC(=C(C=C1Cl)C2=NC3=NC=CN=C3C(=N2)NC4=CC=NC=C4)F
Summary of the method: as §1

[4] = compound: C1=CC(=CC=C1C2=NC3=C(N2)C=C(C=C3)C(=O)N)OC4=CC=C(C=C4)Cl
Summary of the method: as §1

[5] = compound: C1=CC2=C(C=CC(=C2)/C=C\3/C(=O)NC(=NCC4=CC=CS4)S3)N=C1
Summary of the method: as §1

[6] = compound: C1=CC2=NC=CN=C2C=C1/C=C/3\C(=O)NC(=O)S3
Summary of the method: as §1

[7] = compound: C1=CC=C(C=C1)C2=NC(=C(N2)C3=CC=NC=C3)C4=CC(=C(C=C4)Cl)O
Summary of the method: as §1

[8] = compound: C1=CC=C2C(=C1)C3=NNC4=CC=CC(=C43)C2=O
Summary of the method: as §1

[9] = compound: C1CCN(C1)C(=O)NC2=CC=CC(=C2)NC3=NC=C(C(=N3)NCCC4=CN=CN4)Br
Summary of the method: as §1

[10] = compound: C1CN(CCC1(CC2=CC=C(C=C2)Cl)N)C3=NC=NC4=C3C=CN4
Summary of the method: as §1

[11] = compound: C=CC(=O)N1CCC[C@@H](n2nc(-c3ccc(Oc4ccccc4)cc3)c3c(N)ncnc32)C1 [ibrutinib]
Summary of the method: as §1

[12] = compound: CC(=O)c1cnc2ccc(-c3cc(Cl)c(O)c(Cl)c3)nc2c1N[C@H]1CC[C@H](CN(C)C)CC1
Summary of the method: as §1

[13] = compound: CC(C)(C)Cn1c(N)nc2ccc(-c3[nH]c(C(C)(C)C)nc3-c3ccc(F)cc3)nc21 [ralimetinib]
Summary of the method: as §1

[14] = compound: CC(C)(O)CC(=O)NCCn1ccc2ncnc(Nc3ccc(Oc4cccc(C(F)(F)F)c4)c(Cl)c3)c21
Summary of the method: as §1

[15] = compound: CC(C)C1=C2N=C(C=C(N2N=C1)NCC3=CC=CC=C3)NCCCCCCN
Summary of the method: as §1

[16] = compound: CC(C)C[C@@H](C=O)NC(=O)[C@H](CC(C)C)NC(=O)[C@H](CC(C)C)NC(=O)OCc1ccccc1
Summary of the method: as §1

[17] = compound: CC1=C(C(CC(=O)N1)C2=CC=C(C=C2)C(F)(F)F)C(=O)NC3=C(C=C4C(=C3)C=NN4)F
Summary of the method: as §1

[18] = compound: CC1=C(C2=C(C=C1)C(=O)C3=CC=CC=C3N2CCCN)C
Summary of the method: as §1

[19] = compound: C1COCCN1CCN2C3=CC=CC=C3N=C2NC(=O)C4=CC(=CC=C4)[N+](=O)[O-] [IRAK-1-4 Inhibitor I]
Summary of the method: as §1

[20] = compound: CC(C)N(C[C@H]1O[C@@H](n2cnc3c(N)ncnc32)[C@H](O)[C@@H]1O)[C@H]1C[C@@H](CCc2nc3cc(C(C)(C)C)ccc3[nH]2)C1 [pinometostat]
Summary of the method: as §1

Row | Target | log2 fold change [1] | log2 fold change [2] | log2 fold change [3] | log2 fold change [4] | log2 fold change [5] | log2 fold change [6] | log2 fold change [7] | log2 fold change [8] | log2 fold change [9] | log2 fold change [10] | log2 fold change [11] | log2 fold change [12] | log2 fold change [13] | log2 fold change [14] | log2 fold change [15] | log2 fold change [16] | log2 fold change [17] | log2 fold change [18] | log2 fold change [19] | log2 fold change [20]
1 | IGHA1 (UniProt P01876) | inactive: 0.536 | inactive: 0.013 | inactive: 0 | inactive: 0.321 | inactive: -0.1 | inactive: -0.388 | inactive: -0.547 | inactive: -0.095 | inactive: 0.015 | inactive: -0.143 | inactive: -0.036 | inactive: -0.192 | inactive: -0.026 | inactive: 0.151 | inactive: -0.74 | inactive: -0.079 | inactive: -0.411 | inactive: 0.189 | – | –
2 | INPP5K (UniProt Q9BT40) | inactive: 0.076 | – | inactive: -0.211 | inactive: 0.018 | – | – | inactive: 0.044 | – | inactive: -0.003 | inactive: -0.071 | – | – | inactive: -0.058 | inactive: -0.122 | inactive: -0.034 | inactive: -0.09 | inactive: -0.018 | inactive: 0.127 | inactive: 0.053 | inactive: 0.097
3 | IGHG1 (UniProt P01857) | inactive: 0.638 | – | – | inactive: -0.313 | – | inactive: -0.014 | – | – | – | – | inactive: -0.029 | – | – | – | inactive: 0.023 | – | inactive: 0.188 | – | – | –
4 | IL10RB (UniProt Q08334) | inactive: 0.05 | inactive: -0.089 | inactive: -0.106 | inactive: 0.053 | inactive: 0 | inactive: -0.03 | – | inactive: 0.029 | inactive: 0.037 | inactive: 0.075 | inactive: 0.079 | inactive: 0.09 | – | inactive: -0.09 | inactive: 0.063 | – | – | inactive: -0.089 | inactive: 0.027 | inactive: 0.04
5 | IP6K1 (UniProt Q92551) | inactive: -0.054 | inactive: 0.017 | inactive: -0.24 | inactive: 0 | inactive: 0.25 | inactive: -0.025 | inactive: -0.088 | inactive: 0.142 | inactive: -0.083 | inactive: 0.067 | inactive: 0.05 | inactive: -0.154 | inactive: -0.159 | inactive: -0.295 | active: -0.667 | inactive: 0.069 | – | inactive: 0.095 | – | –
6 | ING4 (UniProt Q9UNL4) | inactive: -0.133 | inactive: 0.08 | inactive: -0.204 | inactive: 0.307 | inactive: 0.058 | – | – | inactive: -0.033 | inactive: -0.237 | inactive: 0.272 | – | inactive: 0.173 | – | inactive: 0.195 | inactive: -0.034 | – | – | inactive: 0.088 | – | –
7 | IL18R1 (UniProt Q13478) | inactive: -0.4 | – | – | inactive: -0.033 | – | inactive: -0.114 | – | – | – | – | inactive: 0.466 | – | – | – | inactive: 0.125 | – | inactive: -0.079 | – | inactive: -0.101 | inactive: -0.52
8 | ITIH1 (UniProt P19827) | inactive: -0.047 | inactive: -0.266 | – | inactive: 0.049 | inactive: 0.355 | – | – | inactive: -0.418 | – | – | – | inactive: 0.134 | – | – | inactive: -0.011 | – | – | – | – | –
9 | ISCA1 isoform 2 (UniProt Q9BUE6) | inactive: 0.06 | inactive: -0.194 | inactive: -0.077 | inactive: 0.077 | inactive: 0.023 | inactive: 0.043 | – | inactive: -0.022 | inactive: -0.06 | inactive: -0.022 | inactive: 0.011 | inactive: -0.01 | – | inactive: 0.015 | inactive: -0.016 | – | inactive: 0.071 | inactive: 0.066 | inactive: 0.104 | inactive: -0.065
10 | ITM2C (UniProt Q9NQX7) | inactive: -0.078 | inactive: -0.019 | inactive: 0.013 | inactive: -0.297 | inactive: -0.023 | inactive: 0.062 | inactive: -0.029 | inactive: 0.052 | – | – | inactive: -0.069 | inactive: -0.07 | inactive: -0.063 | inactive: -0.186 | active: -0.445 | inactive: 0.036 | – | – | – | –
11 | ITPRID2 (UniProt P28290) | inactive: 0.022 | – | inactive: -0.133 | inactive: -0.268 | – | – | inactive: -0.213 | – | – | – | – | – | inactive: -0.025 | inactive: 0.238 | active: -0.686 | inactive: 0.063 | – | – | inactive: 0.004 | inactive: 0.03
12 | IPP (UniProt Q9Y573) | – | inactive: 0.091 | – | – | inactive: 0.083 | inactive: -0.17 | – | inactive: 0.139 | – | – | inactive: 0.041 | inactive: -0.084 | – | – | – | – | – | – | – | –
13 | IL17RA (UniProt Q96F46) | – | inactive: -0.097 | – | – | inactive: 0.051 | – | – | inactive: -0.015 | inactive: -0.03 | inactive: 0.103 | – | inactive: -0.052 | – | – | – | – | – | inactive: 0.062 | – | –
14 | INTS12 (UniProt Q96CB8) | – | – | – | – | – | – | – | – | inactive: -0.058 | inactive: -0.229 | – | – | – | – | – | – | – | inactive: 0.396 | – | –
15 | IGKV3D-11, A0A0A0MRZ8 | – | – | – | – | – | – | – | – | – | – | – | – | – | – | – | – | inactive: -0.001 | – | – | –
16 | IL1RAP isoform 5 (UniProt Q9NPH3) | – | inactive: -0.061 | inactive: 0.278 | – | inactive: 0.359 | inactive: -0.102 | inactive: -0.325 | inactive: 0.152 | inactive: 0.165 | inactive: -0.115 | inactive: 0.049 | inactive: -0.046 | inactive: -0.1 | inactive: 0 | – | inactive: 0.093 | – | inactive: -0.197 | – | –

Record cards, from the list above. Order of values: log2 fold change [1]	log2 fold change [2]	log2 fold change [3]	log2 fold change [4]	log2 fold change [5]	log2 fold change [6]	log2 fold change [7]	log2 fold change [8]	log2 fold change [9]	log2 fold change [10]	log2 fold change [11]	log2 fold change [12]	log2 fold change [13]	log2 fold change [14]	log2 fold change [15]	log2 fold change [16]	log2 fold change [17]	log2 fold change [18]	log2 fold change [19]	log2 fold change [20]
ITM2C (UniProt Q9NQX7) in the list: inactive: -0.078	inactive: -0.019	inactive: 0.013	inactive: -0.297	inactive: -0.023	inactive: 0.062	inactive: -0.029	inactive: 0.052	–	–	inactive: -0.069	inactive: -0.07	inactive: -0.063	inactive: -0.186	active: -0.445	inactive: 0.036	–	–	–	–
ING4 (UniProt Q9UNL4) in the list: inactive: -0.133	inactive: 0.08	inactive: -0.204	inactive: 0.307	inactive: 0.058	–	–	inactive: -0.033	inactive: -0.237	inactive: 0.272	–	inactive: 0.173	–	inactive: 0.195	inactive: -0.034	–	–	inactive: 0.088	–	–
